PubChem BioAssay AID1159578 | Peter MacCallum Cancer Centre – 2015

- Test: 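Knock-downs that alter how fast lymphatic endothelial cells migrate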 (primary screen)
- System: human lymphatic endothelial cells
- Reagents: siRNA pool against human genes, 40 nM
- Timing: 48 h after transfection
- Measurement: 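High-content imaging of dye-stained cells in a scratch assay measures filled wound area and nuclei per well; duplicate means given as ratio to mock and robust z-score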
- Scale: migration robust z-score: higher = faster migration into the scratch; nuclei per well: higher = more cells in the well
- Call rule: 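Pools averaging fewer than 3300 nuclei are never called; remaining pools count as changed when migration robust z lies outside -2 to 2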
- Calls: active = migration changed; inactive = no migration change, or too few cells
Here is a random part of about 18,000 deposited reagents. About 1,030 of all reagents (5.7%) count as active. 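Inactive calls also include pools with fewer than 3300 nuclei, whose migration was not assessed.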 Raw values vary from plate to plate and are shown uncorrected. Further read-outs or replicates are left out here.

| gene symbol | migration robust z-score | migration class with cell-count check | nuclei per well, duplicate mean | outcome |
| --- | --- | --- | --- | --- |
| PTRH2 (GeneID 51651) | 0.71 | migration z between -2 and 2; enough cells | 6467 | inactive |
| ACADS (GeneID 35) | 0.28 | migration z between -2 and 2; enough cells | 4898 | inactive |
| COLQ (GeneID 8292) | 0.74 | migration z between -2 and 2; enough cells | 5415 | inactive |
| FAM163A (GeneID 148753) | 0.84 | migration z between -2 and 2; enough cells | 6442 | inactive |
| PDLIM3 (GeneID 27295) | -0.08 | migration z between -2 and 2; enough cells | 5766 | inactive |
| YWHAH (GeneID 7533) | 0.02 | migration z between -2 and 2; enough cells | 5125 | inactive |
| MMP10 (GeneID 4319) | 0.36 | migration z between -2 and 2; enough cells | 5350 | inactive |
| ST3GAL1 (GeneID 6482) | -0.02 | migration z between -2 and 2; enough cells | 6170 | inactive |
| GLI3 (GeneID 2737) | 0.1 | migration z between -2 and 2; enough cells | 4034 | inactive |
| ASH1L (GeneID 55870) | -1.94 | migration z between -2 and 2; enough cells | 4557 | inactive |
| TNIP3 (GeneID 79931) | -0.33 | migration z between -2 and 2; enough cells | 5746 | inactive |
| CSNK2A2 (GeneID 1459) | -1.79 | migration z between -2 and 2; enough cells | 5512 | inactive |
| NDP (GeneID 4693) | -1.12 | migration z between -2 and 2; enough cells | 4200 | inactive |
| SAFB2 (GeneID 9667) | -0.12 | migration z between -2 and 2; enough cells | 5126 | inactive |
| SPAG5 (GeneID 10615) | -0.06 | migration z between -2 and 2; enough cells | 4519 | inactive |
| PRRX2 (GeneID 51450) | 0.57 | migration z between -2 and 2; enough cells | 6148 | inactive |
| ZIC3 (GeneID 7547) | -0.21 | migration z between -2 and 2; enough cells | 6658 | inactive |
| DIPK1A (GeneID 388650) | -1.52 | migration z between -2 and 2; enough cells | 3975 | inactive |
| KLHL5 (GeneID 51088) | -0.78 | migration z between -2 and 2; enough cells | 5044 | inactive |
| LHFPL7 (GeneID 255349) | 0.6 | migration z between -2 and 2; enough cells | 5044 | inactive |
| TEX15 (GeneID 56154) | -0.76 | migration z between -2 and 2; enough cells | 5284 | inactive |
| TMEM208 (GeneID 29100) | 0.58 | migration z between -2 and 2; enough cells | 4780 | inactive |
| CA10 (GeneID 56934) | -1.09 | migration z between -2 and 2; enough cells | 6352 | inactive |

A stretch from the list above, as a working copy:
| gene symbol | migration robust z-score | migration class with cell-count check | nuclei per well, duplicate mean | outcome |
| --- | --- | --- | --- | --- |
| ST3GAL1 (GeneID 6482) | -0.02 | migration z between -2 and 2; enough cells | 6170 | inactive |
| GLI3 (GeneID 2737) | 0.1 | migration z between -2 and 2; enough cells | 4034 | inactive |
| ASH1L (GeneID 55870) | -1.94 | migration z between -2 and 2; enough cells | 4557 | inactive |
| TNIP3 (GeneID 79931) | -0.33 | migration z between -2 and 2; enough cells | 5746 | inactive |
